The text below walks through data of PubChem BioAssay AID493014 (National Center for Advancing Translational Sciences (NCATS), 2011).

Some of the results follow. The main result of the screen is listed elsewhere. These columns were measured beside it and carry no call. Compounds called inactive in the main read-out are mostly missing here. Words in brackets tell the shape of the fitted curve; partial curves, single points and poor fits give uncertain potencies.

A short description of the experiment: qHTS Assay to Find Inhibitors of Chronic Active B-Cell Receptor Signaling. The note with it: ABC-DLBCL IkBa-CBG/CBR reporter, luminescence ratio (green luciferase fused to IkBa over red control in TMD8 lymphoma cells), 4 h. In a few lines: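 Compounds up to 46 uM were incubated four hours with TMD8 cells whose green CBG68 luciferase is fused to IkappaBalpha; red CBR luminescence normalised the signal, and concentration-effect curves were fitted to fusion, red and ratio data.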
A general note: qHTS replaces the single test concentration by a dilution series.

Where [1] appears, read: measured here: CBR red luminescence, cell number.
Where [2] appears, read: measured here: IkBa-CBG green luminescence.

A word on the AC50: it is the concentration at which the activity in the assay is half-maximal. For the molecule `CCOC(=O)c1oc2ccccc2c1NC(=O)C1CCCCC1`, under setting [1], the AC50 is 4.61 µM [rising, single point].
Same read-out and setting: with `FC(F)(F)c1nnc2ccc(NCc3ccccc3)nn12` the figure was 12.6 µM [falling, partial curve, poor fit]; with `CCOC(=O)CSc1nnc(CNC(=O)c2cccs2)n1-c1cc(OC)ccc1OC`, 0.731 µM [rising, partial curve, poor fit].
Turning to `Cc1ccc(NC2CC(=O)N(CCc3ccccc3)C2=O)cc1` (configuration not stated), the AC50 under setting [1] is 2.91 µM [falling, single point].
Same read-out and setting: with `CSc1ccc(CNC(=O)Cc2ccc(NC(=O)C3=C(C)OCCS3)cc2)cc1` the figure was 35.5 µM [rising, single point].
Take `COc1ccc(-c2cc(C(=O)Nc3cnn(Cc4ccccc4C)c3)no2)cc1OC`: under setting [1], the AC50 was 11.2 µM [falling, partial curve].
For `CN(CC(=O)Nc1ccc(F)c(F)c1F)C(=O)C1=NN(c2ccccc2)C(=O)CC1`, the AC50 under setting [1] is 13 µM [rising, partial curve, poor fit].
For the molecule `CCC1CCCCN1C(=O)CSc1nnc(-c2c[nH]c3ccccc23)o1` (configuration not stated), the AC50 under setting [1] is 35.5 µM [falling, single point].
`N#Cc1c(-c2ccco2)cc(-c2ccc(F)cc2)nc1N`: the AC50 is 10.3 µM [falling, partial curve, poor fit] under setting [1] and 1.03 µM [rising, partial curve, poor fit] under setting [2].
Consider `CC12CC(NC(=O)N1c1cccc(C(=O)NCc3ccccn3)c1)c1ccccc1O2` (configuration not stated), for which the AC50 under setting [1] is 22.4 µM [rising, partial curve, poor fit].
The same measure, in the same setting: with `CCc1cc(C(=O)N2CCCC(C(=O)c3cccc(OC(C)C)c3)C2)n(C)n1` (configuration not stated) the figure was 5.62 µM [falling, full curve, poor fit].
Take `CC(C)C[C@H](N)c1nnc(S(=O)(=O)Cc2ccc(F)cc2)o1`: the AC50 under setting [1] was 2.24 µM [falling, full curve].
Take `CC1CCN(c2oc(Cc3cccc4ccccc34)nc2C#N)CC1`: the AC50 runs as follows: under setting [1], 2.24 µM [rising, partial curve, poor fit]; under setting [2], 10 µM [falling, partial curve, poor fit].
Regarding `COc1cc(S(=O)(=O)N2CCN(C)CC2)c(OC)cc1Br`, under setting [1], the AC50 was 8.2 µM [falling, single point].
The same measure, in the same setting: with `Cc1ccccc1-n1c(C)nnc1SCC(=O)NCC1CCCO1` (configuration not stated) the figure was 17.8 µM [rising, single point].
`O=C(c1ccc(Cl)cc1)N1C2C=CC(C2)C1(C(F)(F)F)C(F)(F)F` (configuration not stated): the AC50 under setting [1] was 23.1 µM [rising, partial curve, poor fit].
As for `Cc1cc[n+](-c2[nH]c(=O)sc2/C=N/N=C(\[O-])c2ccccc2)cc1`, under setting [1], the AC50 is 22.4 µM [falling, single point].
Still for that read-out and setting: with `Cc1cccc(CSCCNC(=O)COc2ccc(Cl)cc2)c1` the figure was 18.4 µM [rising, partial curve, poor fit]; with `CCC(=O)N1CCC2(CC1)Oc1ccc(Cl)cc1C(=O)C21CC(c2ccccc2)=NO1` (configuration not stated), 14.1 µM [falling, single point].
For the molecule `O=C(N[C@@H](Cc1ccccc1)C(=O)N1CCN(S(=O)(=O)c2ccccc2F)CC1)c1ccco1`, the AC50 under setting [1] was 14.6 µM [rising, partial curve, poor fit].
The same measure, in the same setting: with `CCCCOC(=O)c1cc(=O)[nH]c2ccc(C)cc12` the figure was 6.31 µM [rising, partial curve, poor fit].
On to `Cc1nc(N/N=C/c2ccccn2)sc1C`, for which the AC50 reads like this: under setting [1], 16.4 µM [falling, single point]; under setting [2], 16.4 µM [falling, single point].
For the molecule `COCCNC(=S)N/N=C(\C)c1ccc(Cl)s1`, the AC50 is 35.5 µM [falling, single point] under setting [1] and 12.6 µM [falling, partial curve] under setting [2].
For the molecule `CCCCN1C(=O)C2C3C=CC(C2C1=O)C1C2C(=O)N(CCCC)C(=O)C2C31` (configuration not stated), the AC50 under setting [1] was 0.651 µM [falling, full curve, poor fit].
Take `O=C(COC(=O)c1nsc(Cl)c1Cl)NC1CCCCC1`: the AC50 under setting [1] is 12.6 µM [rising, partial curve, poor fit].
Take `Nc1c(C(=O)NC23CC4CC(CC(C4)C2)C3)sc2nc3c(c(C(F)(F)F)c12)CCC3`: under setting [1], the AC50 was 3.16 µM [rising, single point].
Still for that read-out and setting: with `COC(=O)c1cc(NC(=O)/C=C/c2ccccc2)ccc1O` the figure was 3.55 µM [falling, full curve].
On to `CS(=O)c1ccccc1COC(=O)Nc1ccc(Cl)cc1` (configuration not stated), for which the AC50 under setting [2] was 18.4 µM [rising, partial curve, poor fit].
Turning to `O=C(Nc1nc2c(F)cc(F)cc2s1)C1COc2ccccc2O1` (configuration not stated), the AC50 under setting [1] is 7.94 µM [falling, partial curve].
For the molecule `FC(F)(F)c1cccc(NC(=S)Nc2cccc(Cl)c2)c1`, the AC50 under setting [1] was 22.4 µM [rising, single point].
Regarding `Cc1ccc(C(=O)CSc2ncnc3ccccc23)o1`, the AC50 under setting [1] was 14.1 µM [falling, single point].
With `COc1ccccc1-n1cnnc1SCc1csc(-c2ccccc2)n1`, the half-maximal activity concentration (AC50) under setting [1] is 2.91 µM [falling, partial curve].
On the same count and under the same terms, with `Cc1ccc(NC(=S)C2=C(O)c3sccc3N(C)S2(=O)=O)cc1` the figure was 9.2 µM [falling, single point].
The same measure, in the same setting: with `O=C(O)c1cccc(C(=O)Cc2ccccc2)c1` the figure was 5.62 µM [rising, single point].
Same read-out and setting: with `C/C(=N\NC(=O)c1cc(C(C)(C)C)[nH]n1)C12CC3CC(CC(C3)C1)C2` the figure was 3.98 µM [rising, single point]; with `COCCNC(=O)c1onc(CSc2cccc(Cl)c2)c1C(=O)O`, 35.5 µM [falling, single point]; with `COc1cc(OC)cc(C(=O)NC(=S)Nc2nnn(C)n2)c1`, 15.8 µM [falling, single point].
Take `COc1ccc(C/C(N)=N/OC(=O)c2ccc(Cl)cc2)cc1`: the AC50 under setting [1] is 17.8 µM [rising, partial curve, poor fit].
On to `NC(=O)c1ccccc1NC(=O)/C=C/c1cccc(Cl)c1`, for which the AC50 under setting [1] was 14.1 µM [falling, single point].
The same measure, in the same setting: with `O=C(CSc1nnc(-c2n[nH]c3ccccc23)n1-c1ccccc1)Nc1ccccc1Cl` the figure was 23.1 µM [falling, single point].
Still for that read-out and setting: with `Cc1c2cnn(CC(=O)Nc3c(F)c(F)cc(F)c3F)c(=O)c2c(C)n1Cc1ccccc1F` the figure was 5.62 µM [rising, partial curve, poor fit].
On the same count and under the same terms, with `Cc1cc(C)n(-c2nnc(C)n2/N=C/c2cc(Br)ccc2OCc2ccccc2)n1` the figure was 31.6 µM [falling, single point]; with `Cc1cc(/C=C(\C#N)C(=O)O)c(C)n1CC1CCCO1` (configuration not stated), 3.98 µM [rising, full curve, poor fit].
For the molecule `CCOC(=O)NC(=O)/C(C#N)=N/Nc1ccc(F)cc1`, the AC50 under setting [1] is 29.1 µM [falling, single point].
Still for that read-out and setting: with `O=C(CCc1ccccc1)Nc1ccc(S(=O)(=O)N2CCOCC2)cc1` the figure was 31.6 µM [rising, single point]; with `CSc1ncccc1C(=O)OCC(=O)N1CCN(C(=O)c2ccco2)CC1`, 20.6 µM [rising, single point].
As to `COC(=O)c1cc(-c2ccccc2)sc1NC(=O)c1cc(C)on1`, the AC50 under setting [1] was 0.58 µM [rising, full curve].
On the same count and under the same terms, with `CN(Cc1ccccc1)C(=O)CSc1n[nH]c(N)n1` the figure was 0.447 µM [rising, full curve, poor fit].
Still for that read-out and setting: with `CCOC(=O)c1sc(=NC(=O)c2ccc(Cl)s2)n(C)c1C` the figure was 0.891 µM [falling, full curve]; with `COc1ccccc1N1CCN(C(=O)c2ccc(Br)s2)CC1`, 6.31 µM [rising, partial curve, poor fit].
Take `Cc1[nH]n(-c2ccccc2)c(=O)c1C=Nc1ccc(S(=O)(=O)NC(N)=O)cc1`: the AC50 under setting [1] is 0.282 µM [rising, full curve, poor fit].
Turning to `O=S(=O)(Cc1ccccc1Cl)N1CCCCC1`, the half-maximal activity concentration (AC50) under setting [1] is 0.631 µM [rising, full curve, poor fit].
As for `Cc1cc(C)n(CCN(C)Cc2cn[nH]c2-c2ccc(F)cc2F)n1`, the AC50 under setting [1] was 4.47 µM [rising, full curve, poor fit].
For the molecule `O=C(Nc1ccc(C(F)(F)F)cc1)C1CCCN1S(=O)(=O)c1cccc2cccnc12` (configuration not stated), the AC50 under setting [1] is 3.55 µM [rising, partial curve, poor fit].
In the case of `COc1ccc(-c2sc(Nc3ccccc3)n[n+]2-c2ccccc2)cc1Br`, under setting [1], the AC50 is 23.1 µM [falling, single point].
As to `CCN1CCN(C(=O)c2ccc3c(c2)N(Cc2cccc(Cl)c2)C(=O)c2ccccc2S3(=O)=O)CC1`, the AC50 under setting [1] was 35.5 µM [falling, partial curve, poor fit].
Turning to `C/C(CC(=O)Nc1ccc2ccccc2c1)=N\NC(=O)c1cnccn1`, the AC50 under setting [1] was 29.1 µM [falling, single point].
In the case of `CNC(=S)N1CCN(c2c(F)cc3c(=O)c(C(=O)O)cn(C4CC4)c3c2OC)CC1C` (configuration not stated), the AC50 under setting [1] was 0.116 µM [falling, full curve, poor fit].
With `Cc1ccc(NS(=O)(=O)c2ccc(NC(=O)C3CCCO3)cc2)cc1` (configuration not stated), under setting [1], the AC50 was 5.17 µM [rising, full curve, poor fit].
For the molecule `COC(=O)/C(=C\c1cc(OC)c(OC)c(OC)c1)c1nc2ccccc2[nH]1`, under setting [1], the AC50 is 7.08 µM [falling, partial curve].
Turning to `Clc1ccc(-c2nc3ccncc3[nH]2)cc1`, under setting [1], the AC50 was 16.4 µM [falling, partial curve, poor fit].
`c1ccc(CNc2nc(NCc3ccccc3)c3ccccc3n2)cc1`: under setting [1], the AC50 was 35.5 µM [falling, single point].
Take `CCOC(=O)c1c(N)sc(C(=O)Nc2ccc3c(c2)OCO3)c1C`: the AC50 under setting [1] is 2.59 µM [falling, partial curve, poor fit].
